{
  "source": "PubChem BioAssay AID330",
  "about": "(DTP/NCI, 2004)",
  "system": "P388 leukemia ip, CD2F1 mice, survival T/C",
  "assay": "NCI In Vivo Anticancer Drug Screen. Data for tumor model P388 Leukemia (intraperitoneal) in CD2F1 (CDF1) mice",
  "details": "T/C endpoint: median survival time, higher T/C = longer survival",
  "key": {"[1]": {"details": "dose: 50.0 mg/kg/injection, schedule: Q01DX009 (ip), vehicle: saline"}, "[2]": {"details": "dose: 100.0 mg/kg/injection, schedule: Q01DX009 (ip), vehicle: saline"}, "[3]": {"details": "dose: 200.0 mg/kg/injection, schedule: Q01DX005 (ip), vehicle: saline with Tween-80"}},
  "note": "The list is a part of this screen's results and no random one: it is rich in T/C values a quarter to a half above the control, in often repeated tests (any T/C) and in doses without a T/C. Further doses and runs are listed elsewhere. T/C is the treated group as % of the vehicle group. Some doses have a count of surviving animals in place of a T/C: the source holds a T/C of zero for them, seemingly a mark for toxic or unscored doses. Some survivor counts are full or nearly so, which does not show that the dose was tolerated: the source hardly ever lists a survival T/C far under the control, and the zero likely stands for such cases as well. Survivors were counted at the toxicity check, usually on the fifth day, unless a day is given; later deaths do not show. Schedules are NCI's codes, taken here to give the interval after Q, in days (D) or hours (H), and the number of doses after X. Some entries were tested several times; the results are listed from low to high. Where survival is the endpoint, the PubChem record calls one and a half times the control and up active, and a quarter to a half above the control has no call in these data; cut-offs in other NCI protocols can differ.",
  "data": [
    {"smiles": "N/C(CCSc1ccccc1N=Cc1ccccc1O)=N/O", "values": [
      {"measurement": "survivor count", "setting": "dose: 100.0 mg/kg/injection, schedule: Q01DX009 (ip), vehicle: olive oil, sesame oil, peanut oil", "value": "0 of 6"},
      {"measurement": "survivor count", "setting": "dose: 200.0 mg/kg/injection, schedule: Q01DX009 (ip), vehicle: olive oil, sesame oil, peanut oil", "value": "0 of 6"},
      {"measurement": "survivor count", "setting": "dose: 400.0 mg/kg/injection, schedule: Q01DX009 (ip), vehicle: olive oil, sesame oil, peanut oil", "value": "0 of 6"}
    ]},
    {"smiles": "CC(=NC(C)(C)C)Nc1ccc(Cl)cc1", "values": [
      {"measurement": "survivor count", "setting": "dose: 200.0 mg/kg/injection, schedule: Q01DX009 (ip), vehicle: saline with Tween-80", "value": "3 of 6"}
    ]},
    {"smiles": "O=C1OC(c2ccc(Cl)c(Cl)c2)C(=O)C1=O", "note": "(stereo not drawn)", "values": [
      {"measurement": "survivor count", "setting": "dose: 30.0 mg/kg/injection, schedule: Q01DX005 (ip), vehicle: Klucel + Tween-80", "value": "4 of 6"},
      {"measurement": "survivor count", "setting": "dose: 60.0 mg/kg/injection, schedule: Q01DX005 (ip), vehicle: Klucel + Tween-80", "value": "0 of 6"},
      {"measurement": "survivor count", "setting": "dose: 120.0 mg/kg/injection, schedule: Q01DX005 (ip), vehicle: Klucel + Tween-80", "value": "0 of 6"},
      {"measurement": "survivor count", "setting": "dose: 240.0 mg/kg/injection, schedule: Q01DX005 (ip), vehicle: Klucel + Tween-80", "value": "0 of 6"}
    ]},
    {"smiles": "O=C(N/N=C/c1ccccc1O)c1cc2ccccc2cc1O", "values": [
      {"measurement": "survivor count", "setting": "dose: 30.0 mg/kg/injection, schedule: Q01DX005 (ip), vehicle: saline with Tween-80", "value": "6 of 6"},
      {"measurement": "survivor count", "setting": "dose: 60.0 mg/kg/injection, schedule: Q01DX005 (ip), vehicle: saline with Tween-80", "value": "6 of 6"},
      {"measurement": "survivor count", "setting": "dose: 120.0 mg/kg/injection, schedule: Q01DX005 (ip), vehicle: saline with Tween-80", "value": "6 of 6"},
      {"measurement": "survivor count", "setting": "dose: 240.0 mg/kg/injection, schedule: Q01DX005 (ip), vehicle: saline with Tween-80", "value": "6 of 6"}
    ]},
    {"smiles": "CC(=O)c1cnn(C(N)=O)c1C", "values": [
      {"measurement": "T/C", "setting": "dose: 60.0 mg/kg/injection, schedule: Q01DX005 (ip), vehicle: Klucel (hydroxypropylcellulose) (HPC)", "value": "127 % of control"}
    ]},
    {"smiles": "C[S+](C)c1ccccc1NC(C)(C)C", "values": [
      {"measurement": "survivor count", "setting": "[1]", "value": "3 of 6"},
      {"measurement": "survivor count", "setting": "[2]", "value": "2 of 6"}
    ]},
    {"smiles": "CN1CC2OC2(c2ccccc2)C(c2ccccc2)C1", "note": "(stereo not drawn)", "values": [
      {"measurement": "survivor count", "setting": "[3]", "value": "0 of 6"}
    ]},
    {"smiles": "CCN1CCN(CCCl)C1=O", "values": [
      {"measurement": "T/C", "setting": "[1]", "value": "144 % of control"},
      {"measurement": "T/C", "setting": "[2]", "value": "134 % of control"}
    ]},
    {"smiles": "CC1(C)N=C(N)N=C(N)N1c1ccccc1", "values": [
      {"measurement": "survivor count", "setting": "dose: 100.0 mg/kg/injection, schedule: Q04DX003 (ip), vehicle: saline", "value": "1 of 6 and 3 of 6"},
      {"measurement": "survivor count", "setting": "dose: 200.0 mg/kg/injection, schedule: Q04DX003 (ip), vehicle: saline", "value": "0 of 6"},
      {"measurement": "survivor count", "setting": "dose: 400.0 mg/kg/injection, schedule: Q04DX003 (ip), vehicle: saline", "value": "0 of 6"}
    ]},
    {"smiles": "O=C1N(CCc2ccccc2)CCCS1(=O)=O", "values": [
      {"measurement": "survivor count", "setting": "[3]", "value": "0 of 6"}
    ]},
    {"smiles": "CC(=O)OCC1OC([Se][As](C)C)C(OC(C)=O)C(OC(C)=O)C1OC(C)=O", "note": "(stereo not drawn)", "values": [
      {"measurement": "T/C", "setting": "dose: 25.0 mg/kg/injection, schedule: Q01DX009 (ip), vehicle: saline with Tween-80", "value": "126 and 128 % of control"}
    ]}
  ]
}
